From patent US20080031955A1, “Product Comprising a Beta-Lactam Antibiotic” (priority 2004, published 2008)

Conditions: Eur. Ph. 5.0, section 2.9.15, 100 ml cylinder

With `CC1=C(C(=O)O)N2C(=O)[C@@H](NC(=O)[C@H](N)c3ccccc3)[C@H]2SC1` [Comparative experiment A, cephalexin] the Bulk density was 0.27 g/mL.
`CC1=C(C(=O)O)N2C(=O)[C@@H](NC(=O)[C@H](N)c3ccccc3)[C@H]2SC1.O` [Example I, cephalexin] gave a Bulk density of 0.36 g/mL.
